# Assay results from the supplement of paper PMC7666118.
# Sequences of proteins named here, by UniProt entry; tags and fusion partners are left off. A change or cut given only in a name is not applied to a line headed by its entry.
# UniProt P48047: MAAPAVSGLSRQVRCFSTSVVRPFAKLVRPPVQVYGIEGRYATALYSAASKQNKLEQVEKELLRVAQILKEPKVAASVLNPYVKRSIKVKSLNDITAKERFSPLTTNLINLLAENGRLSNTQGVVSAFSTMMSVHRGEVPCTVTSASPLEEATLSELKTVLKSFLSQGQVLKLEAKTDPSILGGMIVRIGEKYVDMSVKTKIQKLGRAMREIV
# UniProt Q7Z3E5: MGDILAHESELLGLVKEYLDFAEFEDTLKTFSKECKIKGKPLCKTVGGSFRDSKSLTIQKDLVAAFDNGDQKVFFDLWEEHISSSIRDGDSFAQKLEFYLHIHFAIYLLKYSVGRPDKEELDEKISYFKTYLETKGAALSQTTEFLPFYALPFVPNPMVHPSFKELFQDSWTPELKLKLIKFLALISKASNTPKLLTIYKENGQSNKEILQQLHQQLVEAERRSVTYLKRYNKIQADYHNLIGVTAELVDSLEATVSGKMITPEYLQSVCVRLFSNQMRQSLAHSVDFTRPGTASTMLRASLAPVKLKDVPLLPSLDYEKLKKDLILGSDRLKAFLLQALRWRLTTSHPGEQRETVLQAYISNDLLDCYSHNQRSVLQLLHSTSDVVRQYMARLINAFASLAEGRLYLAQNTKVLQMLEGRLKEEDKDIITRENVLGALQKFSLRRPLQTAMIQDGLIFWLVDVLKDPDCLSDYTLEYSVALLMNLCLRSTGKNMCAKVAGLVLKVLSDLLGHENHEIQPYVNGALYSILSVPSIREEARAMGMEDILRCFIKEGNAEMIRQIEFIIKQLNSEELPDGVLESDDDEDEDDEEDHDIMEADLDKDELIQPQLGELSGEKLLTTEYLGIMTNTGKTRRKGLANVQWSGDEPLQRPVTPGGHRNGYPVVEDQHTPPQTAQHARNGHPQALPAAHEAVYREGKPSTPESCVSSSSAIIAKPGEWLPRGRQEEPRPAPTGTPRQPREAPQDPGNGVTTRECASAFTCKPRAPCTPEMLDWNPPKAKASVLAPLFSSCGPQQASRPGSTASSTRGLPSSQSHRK
# UniProt Q6QNY0: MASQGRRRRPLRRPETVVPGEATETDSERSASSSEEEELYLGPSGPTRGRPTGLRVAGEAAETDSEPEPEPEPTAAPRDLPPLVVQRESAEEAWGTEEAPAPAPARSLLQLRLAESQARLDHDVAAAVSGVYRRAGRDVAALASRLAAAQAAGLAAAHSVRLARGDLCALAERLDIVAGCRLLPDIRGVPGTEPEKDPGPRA
# UniProt Q9NW68: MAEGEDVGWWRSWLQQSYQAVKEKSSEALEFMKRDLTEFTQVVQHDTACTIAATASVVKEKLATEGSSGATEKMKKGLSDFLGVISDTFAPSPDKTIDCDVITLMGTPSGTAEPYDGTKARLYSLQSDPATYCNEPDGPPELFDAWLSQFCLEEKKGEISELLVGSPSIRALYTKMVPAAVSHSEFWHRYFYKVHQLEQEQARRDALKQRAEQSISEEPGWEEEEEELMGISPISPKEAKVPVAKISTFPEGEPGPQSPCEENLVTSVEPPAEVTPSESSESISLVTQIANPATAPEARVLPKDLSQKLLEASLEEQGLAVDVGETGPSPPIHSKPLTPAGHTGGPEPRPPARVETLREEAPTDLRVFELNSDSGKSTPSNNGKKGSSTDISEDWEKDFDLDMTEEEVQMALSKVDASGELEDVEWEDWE
# UniProt Q8NBU5: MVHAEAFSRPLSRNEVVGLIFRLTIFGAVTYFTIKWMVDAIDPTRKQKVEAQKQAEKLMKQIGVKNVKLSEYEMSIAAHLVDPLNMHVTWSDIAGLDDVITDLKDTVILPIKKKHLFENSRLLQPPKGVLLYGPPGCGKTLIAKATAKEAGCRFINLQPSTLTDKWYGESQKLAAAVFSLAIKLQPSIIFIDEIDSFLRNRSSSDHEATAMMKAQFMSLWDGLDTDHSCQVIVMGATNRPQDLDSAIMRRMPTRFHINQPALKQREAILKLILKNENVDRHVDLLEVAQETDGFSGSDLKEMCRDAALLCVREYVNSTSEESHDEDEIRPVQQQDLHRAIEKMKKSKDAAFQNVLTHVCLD
# UniProt Q86WA6: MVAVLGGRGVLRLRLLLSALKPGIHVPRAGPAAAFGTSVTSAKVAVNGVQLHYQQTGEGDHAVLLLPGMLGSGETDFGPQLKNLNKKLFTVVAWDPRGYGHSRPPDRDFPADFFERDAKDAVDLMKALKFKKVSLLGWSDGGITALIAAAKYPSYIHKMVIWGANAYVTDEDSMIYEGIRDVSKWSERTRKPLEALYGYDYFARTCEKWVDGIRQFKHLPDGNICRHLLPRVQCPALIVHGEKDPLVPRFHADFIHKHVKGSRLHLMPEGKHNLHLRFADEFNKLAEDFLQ
# UniProt Q9HBH7: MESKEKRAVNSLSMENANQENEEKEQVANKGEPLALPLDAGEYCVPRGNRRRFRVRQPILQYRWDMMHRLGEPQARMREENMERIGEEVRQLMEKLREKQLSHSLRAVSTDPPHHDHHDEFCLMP
# UniProt Q9UI12, whole entry: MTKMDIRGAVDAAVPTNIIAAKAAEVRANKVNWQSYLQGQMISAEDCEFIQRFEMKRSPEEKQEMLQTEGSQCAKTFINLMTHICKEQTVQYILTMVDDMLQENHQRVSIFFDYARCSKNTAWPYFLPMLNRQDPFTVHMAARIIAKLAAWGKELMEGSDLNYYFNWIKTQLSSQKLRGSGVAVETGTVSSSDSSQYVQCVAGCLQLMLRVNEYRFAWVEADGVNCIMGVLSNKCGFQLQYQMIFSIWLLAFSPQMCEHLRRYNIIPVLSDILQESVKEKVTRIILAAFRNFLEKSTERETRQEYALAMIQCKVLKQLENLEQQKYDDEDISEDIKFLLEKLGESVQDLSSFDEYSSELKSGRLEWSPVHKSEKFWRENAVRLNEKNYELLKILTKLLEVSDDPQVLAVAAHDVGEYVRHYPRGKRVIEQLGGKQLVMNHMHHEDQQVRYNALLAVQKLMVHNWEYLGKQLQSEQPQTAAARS
# UniProt Q70Z53: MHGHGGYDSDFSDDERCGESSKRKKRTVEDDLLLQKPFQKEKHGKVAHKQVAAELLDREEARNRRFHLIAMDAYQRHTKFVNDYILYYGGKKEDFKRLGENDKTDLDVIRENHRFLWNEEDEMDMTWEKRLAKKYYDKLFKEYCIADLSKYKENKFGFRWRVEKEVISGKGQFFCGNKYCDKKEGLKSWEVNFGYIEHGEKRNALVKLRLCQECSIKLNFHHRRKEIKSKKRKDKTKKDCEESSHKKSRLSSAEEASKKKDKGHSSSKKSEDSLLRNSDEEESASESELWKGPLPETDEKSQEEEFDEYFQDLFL
# UniProt Q9H0W9: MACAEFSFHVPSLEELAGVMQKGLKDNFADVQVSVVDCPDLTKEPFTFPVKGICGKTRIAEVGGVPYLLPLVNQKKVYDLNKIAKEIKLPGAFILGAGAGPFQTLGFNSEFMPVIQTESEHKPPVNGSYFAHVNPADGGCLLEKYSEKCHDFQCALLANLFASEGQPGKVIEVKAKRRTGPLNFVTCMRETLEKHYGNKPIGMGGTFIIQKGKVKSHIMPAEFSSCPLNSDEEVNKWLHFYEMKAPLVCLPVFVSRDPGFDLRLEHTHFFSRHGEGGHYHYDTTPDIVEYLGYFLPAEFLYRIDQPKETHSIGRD
# UniProt Q96BM9: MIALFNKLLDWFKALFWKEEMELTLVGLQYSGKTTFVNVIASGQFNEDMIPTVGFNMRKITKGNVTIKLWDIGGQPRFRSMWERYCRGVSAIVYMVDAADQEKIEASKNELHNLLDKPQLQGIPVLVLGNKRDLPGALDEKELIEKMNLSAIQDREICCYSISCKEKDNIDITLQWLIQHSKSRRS
# UniProt P16615: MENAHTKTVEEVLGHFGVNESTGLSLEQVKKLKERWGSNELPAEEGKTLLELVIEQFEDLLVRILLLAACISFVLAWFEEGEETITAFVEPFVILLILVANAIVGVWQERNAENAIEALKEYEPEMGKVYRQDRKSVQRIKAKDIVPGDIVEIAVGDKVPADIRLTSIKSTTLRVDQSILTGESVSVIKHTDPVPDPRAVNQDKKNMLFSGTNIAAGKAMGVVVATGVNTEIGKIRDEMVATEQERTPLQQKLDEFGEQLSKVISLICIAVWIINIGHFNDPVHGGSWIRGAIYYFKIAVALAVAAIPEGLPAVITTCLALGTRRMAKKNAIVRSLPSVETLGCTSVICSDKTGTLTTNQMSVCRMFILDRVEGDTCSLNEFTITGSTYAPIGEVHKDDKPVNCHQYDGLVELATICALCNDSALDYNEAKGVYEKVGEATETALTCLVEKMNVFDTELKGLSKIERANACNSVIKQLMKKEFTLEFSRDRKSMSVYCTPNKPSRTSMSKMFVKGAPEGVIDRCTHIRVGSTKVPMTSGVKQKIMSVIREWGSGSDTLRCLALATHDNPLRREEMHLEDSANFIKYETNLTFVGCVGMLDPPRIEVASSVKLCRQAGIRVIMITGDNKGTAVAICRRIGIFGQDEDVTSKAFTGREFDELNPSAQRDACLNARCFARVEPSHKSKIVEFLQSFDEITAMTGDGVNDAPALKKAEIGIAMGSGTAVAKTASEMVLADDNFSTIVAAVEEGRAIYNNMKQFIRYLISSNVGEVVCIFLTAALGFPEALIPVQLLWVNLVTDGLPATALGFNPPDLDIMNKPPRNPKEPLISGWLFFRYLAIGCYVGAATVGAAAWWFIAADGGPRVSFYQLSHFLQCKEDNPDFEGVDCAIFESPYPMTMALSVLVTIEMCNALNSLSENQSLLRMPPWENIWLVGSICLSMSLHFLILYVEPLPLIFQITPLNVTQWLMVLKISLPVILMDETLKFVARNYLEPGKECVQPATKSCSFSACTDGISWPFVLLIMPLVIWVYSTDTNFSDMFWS
# UniProt Q8N2F6: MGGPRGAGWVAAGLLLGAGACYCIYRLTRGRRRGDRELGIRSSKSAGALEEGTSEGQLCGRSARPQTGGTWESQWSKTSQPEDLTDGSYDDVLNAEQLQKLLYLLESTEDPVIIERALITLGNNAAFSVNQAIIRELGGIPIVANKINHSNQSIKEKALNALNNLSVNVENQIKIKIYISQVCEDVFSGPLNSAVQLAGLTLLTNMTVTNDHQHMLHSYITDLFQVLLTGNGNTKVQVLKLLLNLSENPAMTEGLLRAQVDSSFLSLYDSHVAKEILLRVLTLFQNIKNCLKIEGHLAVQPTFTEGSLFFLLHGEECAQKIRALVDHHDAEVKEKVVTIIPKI
# UniProt P15291: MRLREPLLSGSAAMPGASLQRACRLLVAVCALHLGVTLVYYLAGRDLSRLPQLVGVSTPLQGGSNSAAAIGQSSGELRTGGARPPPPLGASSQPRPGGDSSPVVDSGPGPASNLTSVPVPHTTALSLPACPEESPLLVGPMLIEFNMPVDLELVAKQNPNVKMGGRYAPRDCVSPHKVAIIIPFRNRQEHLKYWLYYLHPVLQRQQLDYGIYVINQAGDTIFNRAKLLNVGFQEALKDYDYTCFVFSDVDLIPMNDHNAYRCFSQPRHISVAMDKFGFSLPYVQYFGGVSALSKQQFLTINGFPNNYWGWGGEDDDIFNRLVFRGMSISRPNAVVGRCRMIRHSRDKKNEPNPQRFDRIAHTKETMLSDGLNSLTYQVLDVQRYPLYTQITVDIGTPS
# UniProt Q9BZE9, whole entry: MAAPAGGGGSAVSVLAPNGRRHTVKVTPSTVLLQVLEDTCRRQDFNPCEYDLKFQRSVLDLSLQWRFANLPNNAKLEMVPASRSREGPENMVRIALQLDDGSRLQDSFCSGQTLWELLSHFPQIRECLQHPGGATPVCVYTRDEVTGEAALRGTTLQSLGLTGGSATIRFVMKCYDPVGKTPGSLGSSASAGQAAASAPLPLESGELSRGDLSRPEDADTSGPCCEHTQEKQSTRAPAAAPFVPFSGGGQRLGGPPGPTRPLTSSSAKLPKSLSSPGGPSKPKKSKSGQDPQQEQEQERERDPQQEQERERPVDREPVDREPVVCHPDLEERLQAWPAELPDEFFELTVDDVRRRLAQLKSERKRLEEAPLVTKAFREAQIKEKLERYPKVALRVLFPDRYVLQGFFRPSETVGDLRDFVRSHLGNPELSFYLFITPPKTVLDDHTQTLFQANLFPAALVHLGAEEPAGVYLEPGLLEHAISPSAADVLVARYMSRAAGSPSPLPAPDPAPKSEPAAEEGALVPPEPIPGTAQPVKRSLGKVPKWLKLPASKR
# UniProt Q99766: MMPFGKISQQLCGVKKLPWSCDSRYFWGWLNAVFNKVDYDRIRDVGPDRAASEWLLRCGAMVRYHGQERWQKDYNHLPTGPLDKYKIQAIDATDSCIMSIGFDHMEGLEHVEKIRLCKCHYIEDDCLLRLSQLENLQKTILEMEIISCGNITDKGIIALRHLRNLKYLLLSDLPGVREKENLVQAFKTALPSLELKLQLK
# UniProt O95861: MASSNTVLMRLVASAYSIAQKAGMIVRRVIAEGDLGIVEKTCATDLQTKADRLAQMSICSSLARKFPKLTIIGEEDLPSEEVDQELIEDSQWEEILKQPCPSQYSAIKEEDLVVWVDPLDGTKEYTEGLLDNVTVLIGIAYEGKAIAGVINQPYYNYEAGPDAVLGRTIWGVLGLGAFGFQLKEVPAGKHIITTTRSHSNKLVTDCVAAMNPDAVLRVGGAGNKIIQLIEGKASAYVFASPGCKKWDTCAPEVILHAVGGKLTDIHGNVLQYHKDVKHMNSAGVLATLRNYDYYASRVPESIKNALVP
# Some of the results follow.
# Compound: COc1ccc(Cn2ccc3ccc(C(=O)NO)cc32)cc1
# Experiment: dose-dependent thermal stabilisation call (2D-TPP, DLPTP, 10% FDR) (binary (1 = stabilised)); higher = stabilised by the compound
# Conditions: system: HL-60 intact cells; concentration range 0.04-10 µM
row,Target,dose-dependent thermal stabilisation call
1,ATP5O (UniProt P48047),inactive: 0
2,ARMC9 (UniProt Q7Z3E5),inactive: 0
3,BLOC1S3 (UniProt Q6QNY0),inactive: 0
4,C10ORF104 (UniProt Q96DE5),inactive: 0
5,BSDC1 (UniProt Q9NW68),inactive: 0
6,ATAD1 (UniProt Q8NBU5),inactive: 0
7,BPHL (UniProt Q86WA6),inactive: 0
8,ATP1A1 (UniProt P05023),inactive: 0
9,BEX1 (UniProt Q9HBH7),inactive: 0
10,ATP6V1H (UniProt Q9UI12),inactive: 0
11,C10ORF4 (UniProt Q70Z53),inactive: 0
12,BECN1 (UniProt Q14457),inactive: 0
13,BRIP1 (UniProt Q9BX63),inactive: 0
14,C11ORF54 (UniProt Q9H0W9),active: 1
15,ARPC1B (UniProt O15143),inactive: 0
16,ARL8A (UniProt Q96BM9),inactive: 0
17,ARPC5 (UniProt O15511),inactive: 0
18,ATP1B1 (UniProt P05026),inactive: 0
19,ATP2A2 (UniProt P16615),inactive: 0
20,ATP11B (UniProt Q9Y2G3),inactive: 0
21,ARMC10 (UniProt Q8N2F6),inactive: 0
22,B4GALT1 (UniProt P15291),inactive: 0
23,ASPSCR1 (UniProt Q9BZE9),inactive: 0
24,ATP5S (UniProt Q99766),inactive: 0
25,C12ORF51 (UniProt Q9Y4D8),inactive: 0
26,BPNT1 (UniProt O95861),inactive: 0

# An excerpt of these results, bar-delimited:
row | Target | dose-dependent thermal stabilisation call
8 | ATP1A1 (UniProt P05023) | inactive: 0
9 | BEX1 (UniProt Q9HBH7) | inactive: 0
10 | ATP6V1H (UniProt Q9UI12) | inactive: 0
11 | C10ORF4 (UniProt Q70Z53) | inactive: 0
